The conditions of this data set: dry powder, 1.25 mg freebase equivalent weight of granisetron, 0.5 cm^3 on the tongue.

The structures appear in SMILES notation. Counter-ions that a name gives are not always drawn.

On to `CN1C2CCCC1CC(NC(=O)c1nn(C)c3ccccc13)C2` (stereo not drawn) [granisetron freebase], for which the perceived taste entry is reported as “almost no perceptible taste”.
As to `CN1C2CCCC1CC(NC(=O)c1nn(C)c3ccccc13)C2` (stereo not drawn) [granisetron hydrochloride], the “ranking for the strength of the perceived taste” value is “granisetron freebase<20% granisetron hydrochloride and 80% granisetron freebase<<granisetron hydrochloride”; the “ranking of perceived objectionableness” value was “granisetron freebase<20% granisetron hydrochloride and 80% granisetron freebase<<granisetron hydrochloride”.

Values taken from patent US9101539B2, “Intranasal pharmaceutical compositions with improved pharmacokinetics” (SHIN NIPPON BIOMEDICAL LABORATORIES, LTD., priority 2009, dated 2015).
